Experiment [1] concerns the target EFL-1 (C. elegans (endogenous in late embryos)) (UniProt G5EF11). The experiment in a line: co-IP; lin-35(n745) null (LIN-35 protein null) late embryo extracts; anti-EFL-1 or anti-LIN-37 antibody crosslinked to Protein A Dynabeads; 5 mg lysate, 2 hours at 4°C; lysis buffer 25 mM HEPES pH 7.6, 150 mM NaCl, 0.1% Nonidet P-40; western blot.
Experiment [2] shares this target. The experiment in a line: co-IP; wild-type (N2) late embryo extracts; anti-EFL-1 or anti-LIN-37 antibody crosslinked to Protein A Dynabeads; 5 mg lysate, 2 hours at 4°C; lysis buffer 25 mM HEPES pH 7.6, 150 mM NaCl, 0.1% Nonidet P-40; western blot. For orientation: In western blotting, separated proteins are transferred to a membrane and probed.

By UniProt entry, the sequences of proteins in these tests, tags left out. Where a name states a change or a piece, a line headed by the entry shows the natural chain unless it says otherwise.
UniProt G5EF11: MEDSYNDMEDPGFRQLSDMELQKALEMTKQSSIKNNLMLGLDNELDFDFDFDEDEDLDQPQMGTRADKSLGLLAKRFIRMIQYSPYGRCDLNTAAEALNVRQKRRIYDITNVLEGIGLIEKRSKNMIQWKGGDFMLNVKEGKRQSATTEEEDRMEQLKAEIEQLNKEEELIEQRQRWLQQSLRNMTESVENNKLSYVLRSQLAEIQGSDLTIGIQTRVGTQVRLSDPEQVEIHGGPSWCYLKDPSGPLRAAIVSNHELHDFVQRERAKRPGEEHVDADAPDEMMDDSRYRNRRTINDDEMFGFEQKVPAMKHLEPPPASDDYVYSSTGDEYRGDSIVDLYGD

Results are given in words; binding and its absence hold for the method and conditions named. Binding seen in cells or lysates may run through a third protein. Binding can be weak; no strength is given.

B1: DPL-1 (protein, UniProt Q22703 1-598)
chain: MNPTNYDPRIGQPAQSRPQVSLSMGRRIVQMPTGLPRSYQDESHNEPVGWDEPSGVGGSSGAGGQQSDKPTGLRHFSTKVCEKVKEKGLTNYNEVADELVADYFQNNLIKQIDVVKQEYDMKNIRRRVYDALNVLLAMNIITKSKKDIRWIGLPASASQEISRLEEEKSRREASISSKKQALEEMVLQIVSYKNLVERNRKNEHKNGRPENDTVLHLPFLIINTDKEANVECSVSSDKSEFLFSFDKKFEIHDDFEILKKLNLACSLETTNPTAEEVKTAKSFLPTLHQHYVDEIIANRKKVEAEKEEKRKQQQLIADQMSMNLSQAQYVEPTSSLAQMSYSSRFNRQLQEHLINDGSEDRSAAAGIMERDYDMDKNVNQGSASRGPMYNTYSPQKIRAQVNTPLQVPPVTKRYYVQKTQGPMKHDMTPVVRTVNRPYSTVPPDRRLSTGATSVNSGPVKYYVPQGHQPMHQPVGQRYRVRPQQPQMSHMGQPHQVQQRVVYPAGSISGHQLQPGQRIVTQRIVAPGGPHPPGTIVRKVIRKIVVNNPKQSPAQQVIQKKMMEQDMCTFERKTEQPMTSAQAAALIQHPQPEEYDYFQ
Regarding B1, the binding entry in experiment [1] and in experiment [2] was “binds” each time.

(Values after PMC5683655.)
